In experiment [1] the target is T1, ALK2 fused to three copies of the FLAG epitope (3xFLAG-ALK2) (UniProt Q04771).
T1 sequence: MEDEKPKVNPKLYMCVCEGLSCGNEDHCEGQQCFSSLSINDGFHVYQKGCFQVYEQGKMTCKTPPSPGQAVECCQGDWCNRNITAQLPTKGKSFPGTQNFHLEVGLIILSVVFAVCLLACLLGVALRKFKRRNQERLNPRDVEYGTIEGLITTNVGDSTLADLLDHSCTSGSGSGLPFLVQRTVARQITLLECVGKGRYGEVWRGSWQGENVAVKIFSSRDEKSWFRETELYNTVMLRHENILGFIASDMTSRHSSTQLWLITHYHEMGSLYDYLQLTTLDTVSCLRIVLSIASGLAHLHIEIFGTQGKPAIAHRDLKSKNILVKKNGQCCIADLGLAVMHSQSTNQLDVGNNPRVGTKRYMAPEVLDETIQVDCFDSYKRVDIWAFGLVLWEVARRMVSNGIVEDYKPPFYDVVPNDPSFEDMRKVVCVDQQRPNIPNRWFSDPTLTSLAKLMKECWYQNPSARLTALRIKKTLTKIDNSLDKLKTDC
Briefly: co-IP; Huh7 cells transfected with tagged plasmids, harvested 24 h later, lysed in NET-buffer; immunoprecipitated with ANTI-FLAG M2 Affinity Gel, then immunoblot.

Chains of the proteins cited; added tags and fusions are not shown. Residues count along the entry.
UniProt P36894, residues 24-532: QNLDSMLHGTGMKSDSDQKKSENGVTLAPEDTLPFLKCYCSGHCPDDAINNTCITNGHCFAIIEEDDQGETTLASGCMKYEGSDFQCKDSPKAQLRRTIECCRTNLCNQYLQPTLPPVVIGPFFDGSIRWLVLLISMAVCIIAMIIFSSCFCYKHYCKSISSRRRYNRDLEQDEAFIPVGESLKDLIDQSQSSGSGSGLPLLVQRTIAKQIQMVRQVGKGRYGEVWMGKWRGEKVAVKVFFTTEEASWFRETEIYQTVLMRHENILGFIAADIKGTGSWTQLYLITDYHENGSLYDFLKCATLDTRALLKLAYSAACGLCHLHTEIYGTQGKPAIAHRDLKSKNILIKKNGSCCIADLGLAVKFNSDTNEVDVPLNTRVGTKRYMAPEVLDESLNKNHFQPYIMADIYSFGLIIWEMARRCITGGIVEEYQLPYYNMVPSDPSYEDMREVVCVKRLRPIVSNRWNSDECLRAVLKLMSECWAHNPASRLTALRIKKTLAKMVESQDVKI

The target in experiment [2] is ALK3 fused to three copies of the FLAG epitope (3xFLAG-ALK3) (UniProt P36894). The description is as above.

These are yes or no findings as the source states them, for the method shown. In cells and extracts the contact can be indirect. Some binding calls cover weakened binding; strength is not graded here. Where a sequence is shown, tags or fusion partners need not be part of it.

B1: HFE fused to the cMyc epitope (HFE-cMyc) (protein, UniProt Q30201 23-348)
chain: RLLRSHSLHYLFMGASEQDLGLSLFEALGYVDDQLFVFYDHESRRVEPRTPWVSSRISSQMWLQLSQSLKGWDHMFTVDFWTIMENHNHSKESHTLQVILGCEMQEDNSTEGYWKYGYDGQDHLEFCPDTLDWRAAEPRAWPTKLEWERHKIRARQNRAYLERDCPAQLQQLLELGRGVLDQQVPPLVKVTHHVTSSVTTLRCRALNYYPQNITMKWLKDKQPMDAKEFEPKDVLPNGDGTYQGWITLAVPPGEEQRYTCQVEHPGLDQPLIVIWEPSPSGTLVIGVISGIAVFVVILFIGILFIILRKRQGSRGAMGHYVLAERE
B1: the figures for the binding result in experiment [1] and in experiment [2] were “no binding” and “binds”, respectively.

Values taken from publication PMC6123693.
